# About 6,200 (1.8%) of roughly 340,000 compounds were called active. The inconclusive results got no clear call from the source; some entries with a clear call stand among them for comparison. Calls follow the shape of the dose curve; as a rule, active = well fitted activation curve with a large enough effect; inconclusive = small, poorly fitted or top-dose-only effect; inactive = no such curve, though single readings can be large or run the other way. A potency beside an inconclusive call is a rough fit, not a confirmed value.
# Assay: A quantitative high throughput screen for small molecules that induce DNA re-replication in SW480 colon adenocarcinoma cells. Also: nearly all actives have a fitted effect of over 55% in size. As to re-replication activation: % of control where 0% means no effect.
# Conditions: Hoechst DNA content imaging, 48 h; re-replication activation: at 46.1 µM (top of the series) unless noted
# Method in brief: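 Compounds, transferred as 23 nL by pin tool, were incubated with cells for 48 hr; DNA content per nucleus was then quantified by Hoechst staining and fluorescence plate imaging.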
# Potency is read from the fitted curve at half-maximal effect.
Structure (SMILES),Potency,re-replication activation
CCOc1ccc(NC(=O)CN2CCc3ccccc3C2)cc1,"inconclusive: 6.51 µM [activator, single point]",
COc1cccc(C2c3[nH]c4ccccc4c3C[C@H]3C(=O)N(c4ccccc4C(=O)NCCCN4CCOCC4)C(=O)N23)c1 (some centres undefined),"inconclusive: 6.51 µM [activator, single point]",
O=C(CCN1CCc2ccccc2C(O)(c2ccccc2)C1)c1ccc2c(c1)OCCO2 (centres undefined),"inconclusive: 18.4 µM [activator, single point]",
CCc1cc2cc3c(cc2nc1SCC(=O)N1CCN(C(=O)c2ccco2)CC1)OCO3,,inactive: -0.453%
Cn1cnnc1SCc1nnc(-c2ccccc2Br)o1,,inactive: -24.9%
O=C(OC1C[C@@H]2CC3C[C@H](C1)N2CC3=O)c1c[nH]c2ccccc12 (some centres undefined),,inactive: 0.51%
CCOc1ccc(CN(C)CC(=O)NCc2ccc(F)cc2)cc1,,inconclusive: 102% [activator]
CCOC(=O)N1CCC(n2c(SCC(=O)NCCC3=CCCCC3)nc3ccccc3c2=O)CC1,"inconclusive: 18.4 µM [activator, single point]",
CCCc1nn(-c2ccccc2)c2c1C(c1cccs1)C(C#N)=C(N)O2 (centres undefined),,inactive: -7.8%
CCOC(=O)C1=CC[C@H]2c3c(c4ccccc4n3C)C(=O)C1N2C,,inactive: -0.908%
c1ccc(-c2nnc3sc(-c4cc5ccccc5o4)nn23)cc1,"inconclusive: 20.6 µM [activator, single point]",
CC[N+]1(C)CCC(O)(c2ccc(OC)cc2)C(C(=O)c2ccc(OC)cc2)C1 (centres undefined),active: 2.91 µM,
Oc1ccc(/C=N/N=C/c2ccc(O)c(O)c2)cc1O,"inconclusive: 18.4 µM [activator, single point]",
COc1ccccc1OCCOCCN1CCCC1,,inactive: -0.865%
O=C(/C=C/c1ccc2c(c1)OCO2)Nc1nc2ccc(F)cc2s1,"inconclusive: 32.6 µM [activator, partial curve, poor fit]",
Cc1cccc(NS(=O)(=O)c2cccc(C(=O)NCC3(N4CCOCC4)CCCCC3)c2)c1,,inactive: -24.1%
CC(CCC(=O)O)C1CCC2C3CCC4C[C@H](O)CCC4(C)C3CC(=O)C12C (some centres undefined),,inactive: -3.41%
CCCN1CCN(CCNC(=O)Nc2ccccc2Cl)CC1,,inactive: -10%
O=S(=O)(Nc1ccc(Br)cn1)c1ccc(Cl)s1,,inactive: -1.48%
NC(=O)Cc1nc(-c2ccc(F)cc2)cs1,,inactive: -8.75%
Cc1ccc(Nc2ccncc2S(N)(=O)=O)cc1,,inactive: 9.37%
Nc1nonc1-n1nnc(C(=O)N/N=C/c2ccc3c(c2)OCO3)c1CSc1ccccc1,,inactive: -0.706%
FC(F)(F)c1cccc(NC(=S)N2CCCCCC2)c1,,inactive: 1.55%
C/C(CC(=O)NCc1ccc(Cl)cc1)=N\NC(=O)COc1ccc(C)cc1Br,active: 14.6 µM,
Cc1cc(-c2ccccc2)nc(N/N=C/c2ccccc2)n1,,inactive: 12.2%

Structure (SMILES),Potency,re-replication activation
CCn1c(COc2ccccc2OC)nc2ccccc21,"inconclusive: 6.51 µM [activator, single point]",
Cc1cccn2c(=O)c3cc(C(=O)NCCN4CCOCC4)c(=N)n(Cc4cccnc4)c3nc12,active: 4.11 µM,
Cc1ccc(CN(C)C(=O)CN2C(=O)NC(c3ccccc3)(c3ccccc3)C2=O)c(C)c1,"inconclusive: 20.6 µM [activator, single point]",
CC(C)(O)CN(CCCNC(=S)Nc1ccccc1)C(=S)Nc1ccccc1,,inactive: -0.607%
CC(=O)Nc1ccc(C(=O)OCC(=O)c2ccc(S(=O)(=O)N3CCCCC3)cc2)cc1,"inconclusive: 0.092 µM [activator, full curve, poor fit]",
COc1ccc(C(=O)N/N=C/c2cc(Br)ccc2O)cc1OC,"inconclusive: 0.651 µM [activator, full curve, poor fit]",
CCOC(=O)c1ccc(NC(=O)Cn2nnc(-c3ccc(F)cc3)n2)cc1,,inactive: -5.03%
N#CCCn1c2ccccc2c2nc3ccccc3nc21,,inactive: 4.38%
CCOc1ccc(CNC(=O)Cn2c(=O)c3cccn3c3ccccc32)cc1,"inconclusive: 18.4 µM [activator, single point]",
O=C(CSc1nnc2c(n1)[nH]c1ccccc12)N1CCCCC1,,inactive: -18.5%
N#C/C(=C/c1ccc(-c2ccc(Br)cc2)o1)C(=O)NC1CCCCC1,"inconclusive: 23.1 µM [activator, partial curve, poor fit]",
Cc1cc([N+](=O)[O-])c2[nH]c(C(=O)N/N=C/c3ccccc3C(=O)O)c(-c3ccccc3)c2c1,"inconclusive: 23.1 µM [activator, single point]",
Cc1ccc(S(=O)(=O)N(CC(=O)NCc2ccncc2)Cc2ccccc2F)cc1,,inactive: 7.31%
CC(C)OC(=O)c1cccc(NC(=O)CSc2nnc(N)s2)c1,,inactive: 0.343%
COc1ccc(-c2cc(C(F)(F)F)nc(-n3cc(Cl)cn3)n2)cc1,"inconclusive: 29.1 µM [activator, single point]",
CCOC(=O)c1cc2nc(Nc3ccc(OC)cc3)sc2s1,"inconclusive: 18.4 µM [activator, single point]",
CCc1ccc(C(C(=O)NC2CCCC2)N(Cc2cccnc2)C(=O)c2csnn2)cc1 (centres undefined),,inactive: -5.06%
COc1cc(Cl)c(CN2CCC(CO)(CCOc3ccccc3)CC2)cc1OC,,inactive: -25.3%
Cc1cccc(NC(=O)c2nc(S(=O)(=O)Cc3ccccc3)ncc2Cl)c1,"inconclusive: 5.8 µM [activator, full curve, poor fit]",
CC(C)CNC1CS(=O)(=O)CC1O (centres undefined),,inactive: -14.1%
Cc1ccc(C(=O)Nc2cccc(C(F)(F)F)c2)cc1NC(=O)c1[nH]cnc1C(N)=O,,inactive: -65.1%
CCC(C)c1ccc(O)c(/C=N/O)c1 (centres undefined),"inconclusive: 14.1 µM [activator, single point]",
Cn1c(=O)n(Cc2ccccc2)c(=O)c2c1nc1n2CCN1Cc1ccco1,"inconclusive: 0.92 µM [activator, full curve, poor fit]",
O=C(NN=Cc1ccc([N+](=O)[O-])cc1)C1CC1,,inactive: 3.41%
COc1ccc(OCc2cc(C(=O)N3CCCC(CO)C3)no2)c2ccccc12 (centres undefined),"inconclusive: 29.1 µM [activator, partial curve, poor fit]",

# A draw from above in order of count of non-hydrogen atoms, ascending.
Structure (SMILES),Potency,re-replication activation
CCOC(=O)c1ccc(NC(=O)Cn2nnc(-c3ccc(F)cc3)n2)cc1,,inactive: -5.03%
CC(C)(O)CN(CCCNC(=S)Nc1ccccc1)C(=S)Nc1ccccc1,,inactive: -0.607%
Cc1ccc(CN(C)C(=O)CN2C(=O)NC(c3ccccc3)(c3ccccc3)C2=O)c(C)c1,"inconclusive: 20.6 µM [activator, single point]",

# Further results

Structure (SMILES),Potency,re-replication activation
CCOC(=O)N1CCN(S(=O)(=O)c2ccc(OCC(=O)OC)c(Cl)c2)CC1,,inactive: 6.07%
N#CC(C#N)=Cc1c[nH]c(=O)c(C#N)c1Nc1ccccc1,"inconclusive: 0.82 µM [activator, full curve, poor fit]",
COc1ccc(CN(C)C(=O)C23CC4CC(CC(C4)C2)C3)c(OC)c1,"inconclusive: 29.1 µM [activator, single point]",
O=C(Cn1c2ccccc2c2nc3n(c(=O)c21)CCCS3)Nc1ccccc1,"inconclusive: 18.4 µM [activator, single point]",
CCN1CCN(c2nnc(-c3ccc(F)cc3)c3ccccc23)CC1,"inconclusive: 29.1 µM [activator, single point]",
CCCc1cc(=O)oc2cc(OCC(=O)NC3CCN(Cc4ccccc4)CC3)ccc12,"inconclusive: 6.51 µM [activator, single point]",
CCn1c(CNC(=O)c2ccc(Cl)cc2)nnc1SCC(=O)N1CCOCC1,,inactive: -4.23%
O=C1c2ccc(Cl)cc2S(=O)(=O)c2cccc(C(=O)N3CCN(c4ccc(Cl)cn4)CC3)c21,"inconclusive: 29.1 µM [activator, single point]",
COc1ccc(C)cc1Nc1nc(N)c2cc(OC)c(OC)cc2n1,"inconclusive: 14.1 µM [activator, partial curve, poor fit]",
O=C(Nc1ccc(F)cc1)c1nc[nH]c1C(=O)Nc1ccccc1[N+](=O)[O-],"inconclusive: 3.26 µM [activator, full curve, poor fit]",
CCN(CC)CC(O)CN1c2ccccc2Sc2ccccc21 (centres undefined),"inconclusive: 29.1 µM [activator, single point]",
COc1ccc(-c2ccc3c(c2)C2CC3CCN2S(=O)(=O)c2ccccc2C)cc1 (centres undefined),,inactive: 8.25% [at 9.22 µM]
CCOc1ccc(-c2nnc(-c3ccncc3)o2)cc1OCC,,inactive: -4.38%
CCN1CCN(c2cc(C)c3cc(NC(=O)c4ccc(OC)c(OC)c4)ccc3n2)CC1,"inconclusive: 29.1 µM [activator, single point]",
O=C(CSc1ncccn1)NC1CCCc2ccccc21 (centres undefined),"inconclusive: 29.1 µM [activator, single point]",
CSCCC(NC(=O)c1ccccc1Cl)C(=O)Nc1ccc(C)c(S(=O)(=O)N2CCOCC2)c1 (centres undefined),"inconclusive: 29.1 µM [activator, single point]",
CC(=O)Nc1ccc(NC(=O)CSc2nnc(-c3ccccc3)n2Cc2ccc3c(c2)OCO3)cc1,"inconclusive: 29.1 µM [activator, single point]",
CCCCn1c(=NC(=O)c2ccco2)c(C(=O)OCC)cc2c(=O)n3cccc(C)c3nc21,active: 18.4 µM,
COc1cccc(NC(=O)CN(C)CC(=O)c2c(C)[nH]c3ccccc23)c1,,inactive: -14.9%
O=C(CSc1nc2ccccc2c(=O)n1CC1CCCO1)NCc1ccccc1 (centres undefined),"inconclusive: 18.4 µM [activator, single point]",
OCCNc1nc(-c2ccccc2)c2cc(Br)ccc2n1,"inconclusive: 20.6 µM [activator, single point]",
Cc1cc(Br)cc(/C=N/NC(=O)c2ccc3c(c2)OCO3)c1O,"inconclusive: 6.51 µM [activator, single point]",
COC(=O)c1c(NC(=O)C(=O)N2CCCC2)sc2c1CC(C)(C)OC2,,inactive: -8.71%
CC(=O)OCC(OC(C)=O)C(OC(C)=O)C(OC(C)=O)C(=O)Nc1ccccc1C (centres undefined),"inconclusive: 6.51 µM [activator, partial curve, poor fit]",
